The values that follow come from patent US20030198640A1.

The chains behind the UniProt entries cited, without tags or fusion partners. Where a name states a change or a piece, a line headed by the entry shows the natural chain unless it says otherwise. Residues count along the entry.
UniProt P19438: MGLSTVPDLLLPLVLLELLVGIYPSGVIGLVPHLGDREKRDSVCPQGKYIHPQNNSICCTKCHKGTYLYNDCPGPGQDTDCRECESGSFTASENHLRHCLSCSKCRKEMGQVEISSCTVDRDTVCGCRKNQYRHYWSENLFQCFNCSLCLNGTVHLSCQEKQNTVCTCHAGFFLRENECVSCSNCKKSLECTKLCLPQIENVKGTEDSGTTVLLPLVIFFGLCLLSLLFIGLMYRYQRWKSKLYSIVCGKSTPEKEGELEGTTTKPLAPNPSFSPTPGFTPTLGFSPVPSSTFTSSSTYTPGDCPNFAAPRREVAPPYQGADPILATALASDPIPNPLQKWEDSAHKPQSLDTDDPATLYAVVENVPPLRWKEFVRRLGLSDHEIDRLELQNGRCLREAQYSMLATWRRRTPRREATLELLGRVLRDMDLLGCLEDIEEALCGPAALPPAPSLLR
Flag-TNFR-1, expressed in 293 cells: residues 30-455 of P19438
GST fusion of the cytoplasmic domain of TNFR-1: residues 233-455 of P19438
UniProt P48023: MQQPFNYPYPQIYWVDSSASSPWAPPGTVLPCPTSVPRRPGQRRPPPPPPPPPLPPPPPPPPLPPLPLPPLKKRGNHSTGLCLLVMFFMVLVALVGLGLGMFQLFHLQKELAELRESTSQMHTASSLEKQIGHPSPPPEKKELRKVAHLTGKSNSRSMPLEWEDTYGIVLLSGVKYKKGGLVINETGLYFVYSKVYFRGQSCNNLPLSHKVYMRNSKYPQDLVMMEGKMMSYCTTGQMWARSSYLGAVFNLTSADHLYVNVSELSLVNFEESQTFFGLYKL

The target in assay [1] is T1, Flag-epitope tagged DR3 (Flag-DR3), expressed in 293 cells (human) (UniProt Q93038).
T1 sequence: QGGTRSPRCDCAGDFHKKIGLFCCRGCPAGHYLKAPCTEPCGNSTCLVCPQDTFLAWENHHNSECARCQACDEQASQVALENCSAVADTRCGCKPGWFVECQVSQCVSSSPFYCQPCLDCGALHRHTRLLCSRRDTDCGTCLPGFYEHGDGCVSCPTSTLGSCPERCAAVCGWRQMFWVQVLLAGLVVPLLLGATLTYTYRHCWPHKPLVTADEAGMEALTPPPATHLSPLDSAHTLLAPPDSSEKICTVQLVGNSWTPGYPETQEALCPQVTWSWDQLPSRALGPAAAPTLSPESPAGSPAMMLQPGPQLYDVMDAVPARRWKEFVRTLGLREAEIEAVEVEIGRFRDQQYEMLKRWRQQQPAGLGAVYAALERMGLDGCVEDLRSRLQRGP
As to the kind of experiment: anti-Flag co-immunoprecipitation from transfected 293 cells, anti-myc blot.

For assay [2], the target named is Flag-TNFR-1, expressed in 293 cells (UniProt P19438). The description is as above.
Assay [3] deals with GST fusion of the cytoplasmic domain of TNFR-1 (UniProt P19438). The experiment in a line: GST pull-down of in vitro translated 35S-labelled protein.
Assay [4] concerns the target FasL (form not stated, BIAcore of Example 21) (Homo sapiens (Human)) (UniProt P48023). As to the kind of experiment: BIAcore (not described further). In general terms: Surface plasmon resonance follows binding to a sensor surface in real time, without labels.

These are yes or no findings as the source states them, for the method shown. For some assays here: In cells and extracts the contact can be indirect. Some results given as binding are weak or reduced against the parent protein; the word gives no strength. Sequences can lack the tags named with a protein.

B1: TRADD (myc-TRADD) (protein, UniProt Q15628 1-312, looked up, not shown: small tags and cut ends)
chain: MAAGQNGHEEWVGSAYLFVESSLDKVVLSDAYAHPQQKVAVYRALQAALAESGGSPDVLQMLKIHRSDPQLIVQLRFCGRQPCGRFLRAYREGALRAALQRSLAAALAQHSVPLQLELRAGAERLDALLADEERCLSCILAQQPDRLRDEELAELEDALRNLKCGSGARGGDGEVASAPLQPPVPSLSEVKPPPPPPPAQTFLFQGQPVVNRPLSLKDQQTFARSVGLKWRKVGRSLQRGCRALRDPALDSLAYEYEREGLYEQAFQLLRRFVQAEGRRATLQRLVEALEENELTSLAEDLLGLTDPNGGLA
Consider B1, for which the binding result in assay [1], in assay [2] and in assay [3] was “binds” each time.

B2: TR6-Fc (full-length human TNFR-6 alpha, SEQ ID NO:6 aa 1-300, fused to the Fc domain of human IgG1) (Fc fusion, not shown: a dimerising Fc or GST)
chain: VAETPTYPWRDAETGERLVCAQCPPGTFVQRPCRRDSPTTCGPCPPRHYTQFWNYLERCRYCNVLCGEREEEARACHATHNRACRCRTGFFAHAGFCLEHASCPPGAGVIAPGTPSQNTQCQPCPPGTFSASSSSSEQCQPHRNCTALGLALNVPGSSSHDTLCTSCTGFPLSTRVPGAEECERAVIDFVAFQDISIKRLQRLLQALEAPEGWGPTPRAGRAALQLKLRRRLTELLGAQDGALLVRLLQALRVARMPGLERSVRERFLPVH
Take B2: the binding entry in assay [4] is reported as “binds”.

B3: full-length human TR6 (without Fc), baculovirus/Sf9 (receptor)
chain: VAETPTYPWRDAETGERLVCAQCPPGTFVQRPCRRDSPTTCGPCPPRHYTQFWNYLERCRYCNVLCGEREEEARACHATHNRACRCRTGFFAHAGFCLEHASCPPGAGVIAPGTPSQNTQCQPCPPGTFSASSSSSEQCQPHRNCTALGLALNVPGSSSHDTLCTSCTGFPLSTRVPGAEECERAVIDFVAFQDISIKRLQRLLQALEAPEGWGPTPRAGRAALQLKLRRRLTELLGAQDGALLVRLLQALRVARMPGLERSVRERFLPVH
Consider B3, for which the binding entry in assay [4] is given as “binds”.
